Measured values as given in PMC4797270.

By UniProt entry, the sequences of proteins in these tests, tags left out. Where a name states a change or a piece, a line headed by the entry shows the natural chain unless it says otherwise.
UniProt Q0KIB3: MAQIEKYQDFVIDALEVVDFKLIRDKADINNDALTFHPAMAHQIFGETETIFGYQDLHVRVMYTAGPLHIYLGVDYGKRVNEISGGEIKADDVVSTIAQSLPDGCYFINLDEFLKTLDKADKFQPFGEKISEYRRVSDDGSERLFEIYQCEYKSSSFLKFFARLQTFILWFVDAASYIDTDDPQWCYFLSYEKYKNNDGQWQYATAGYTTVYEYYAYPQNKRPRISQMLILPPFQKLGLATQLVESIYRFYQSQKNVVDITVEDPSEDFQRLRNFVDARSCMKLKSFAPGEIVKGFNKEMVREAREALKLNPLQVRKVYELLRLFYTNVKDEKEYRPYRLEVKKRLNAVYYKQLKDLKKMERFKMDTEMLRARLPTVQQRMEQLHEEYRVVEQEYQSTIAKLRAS
UniProt Q9V6Q2: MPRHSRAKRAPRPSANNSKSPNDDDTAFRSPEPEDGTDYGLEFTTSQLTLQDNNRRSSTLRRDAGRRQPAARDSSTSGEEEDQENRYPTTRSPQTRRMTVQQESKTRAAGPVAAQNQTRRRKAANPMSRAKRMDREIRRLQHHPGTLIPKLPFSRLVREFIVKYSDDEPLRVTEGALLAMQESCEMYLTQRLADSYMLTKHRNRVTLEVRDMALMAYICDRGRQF
UniProt Q24572: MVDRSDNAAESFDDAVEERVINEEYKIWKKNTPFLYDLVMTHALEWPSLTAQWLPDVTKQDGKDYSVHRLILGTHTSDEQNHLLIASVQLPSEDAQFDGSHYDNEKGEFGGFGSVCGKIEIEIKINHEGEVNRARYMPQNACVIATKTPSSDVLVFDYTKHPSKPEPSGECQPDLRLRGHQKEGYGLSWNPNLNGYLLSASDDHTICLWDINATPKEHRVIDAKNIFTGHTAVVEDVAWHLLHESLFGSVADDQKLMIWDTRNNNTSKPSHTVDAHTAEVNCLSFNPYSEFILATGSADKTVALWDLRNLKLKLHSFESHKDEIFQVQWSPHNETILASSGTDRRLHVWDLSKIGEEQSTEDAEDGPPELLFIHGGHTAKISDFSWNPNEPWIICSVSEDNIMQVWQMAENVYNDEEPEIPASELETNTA
UniProt Q8IRG6: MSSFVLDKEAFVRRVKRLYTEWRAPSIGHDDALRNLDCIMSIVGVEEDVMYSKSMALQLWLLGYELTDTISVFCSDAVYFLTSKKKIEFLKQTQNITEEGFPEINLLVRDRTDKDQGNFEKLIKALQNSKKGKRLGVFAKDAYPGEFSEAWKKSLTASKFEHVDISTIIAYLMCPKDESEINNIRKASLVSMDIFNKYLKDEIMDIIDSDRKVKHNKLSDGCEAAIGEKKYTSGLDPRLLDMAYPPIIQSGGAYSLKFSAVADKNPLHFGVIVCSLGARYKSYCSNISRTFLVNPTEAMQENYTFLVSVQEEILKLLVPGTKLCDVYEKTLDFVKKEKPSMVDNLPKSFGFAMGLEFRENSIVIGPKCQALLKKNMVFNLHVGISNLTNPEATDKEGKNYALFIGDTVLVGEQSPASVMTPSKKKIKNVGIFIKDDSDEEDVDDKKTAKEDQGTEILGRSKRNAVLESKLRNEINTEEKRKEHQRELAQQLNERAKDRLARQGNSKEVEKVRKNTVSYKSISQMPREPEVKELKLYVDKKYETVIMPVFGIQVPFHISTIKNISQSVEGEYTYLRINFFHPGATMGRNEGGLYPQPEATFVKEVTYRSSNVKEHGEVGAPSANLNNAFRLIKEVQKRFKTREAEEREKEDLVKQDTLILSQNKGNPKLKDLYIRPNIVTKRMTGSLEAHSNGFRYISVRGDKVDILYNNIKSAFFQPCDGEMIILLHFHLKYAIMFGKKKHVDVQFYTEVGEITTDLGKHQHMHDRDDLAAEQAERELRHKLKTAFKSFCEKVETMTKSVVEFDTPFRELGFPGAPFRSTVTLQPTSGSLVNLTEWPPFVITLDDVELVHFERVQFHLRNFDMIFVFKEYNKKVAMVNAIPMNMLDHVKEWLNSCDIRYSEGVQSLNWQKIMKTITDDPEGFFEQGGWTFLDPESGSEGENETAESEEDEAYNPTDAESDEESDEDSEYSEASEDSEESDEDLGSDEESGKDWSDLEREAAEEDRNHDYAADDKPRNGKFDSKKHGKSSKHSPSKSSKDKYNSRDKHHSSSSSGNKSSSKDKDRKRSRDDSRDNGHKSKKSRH

Assays:
[1] = molecular target: SF-CG2051/Hat1 (S2 cells) (Drosophila melanogaster) (UniProt Q0KIB3); assay: SEC; Superose 6 (100 ml) of nuclear extract from S2 cells stably expressing SF-CG2051; 30 mM Tris/HCl pH 8, 200 mM NaCl, 2 mM EDTA, 10% glycerol; fractions analysed by western blot
[2] = molecular target: SF-CG2051/Hat1 (S2 cells) (Drosophila melanogaster) (UniProt Q0KIB3); assay: co-IP; SEC fraction B15 (CG2051/Hat1 peak) of S2 nuclear extract; IP with antibodies against Flag-CG2051, western blot
[3] = molecular target: CAL1 (Chromosome Alignment Specific 1), endogenous (Drosophila melanogaster (endogenous in S2)); assay: co-IP; SEC fraction B13 (FACT-CAL1 peak) of S2 nuclear extract; IP with antibodies against CENP-A or CAL1, western blot

Molecule: CENP-A/Cid (endogenous) (from UniProt Q9V6Q2 1-225)
- binding [1]: binds
- binding [2]: binds

Molecule: Caf1 (Rbap46/48), endogenous (from UniProt Q24572 1-430)
- binding [2]: binds

Molecule: FACT subunit Dre4, endogenous (from UniProt Q8IRG6 1-1083)
- binding [1]: no binding
- binding [2]: no binding

B1: FACT subunit Ssrp, endogenous (protein, UniProt Q05344 1-723)
chain: MTDSLEYNDINAEVRGVLCSGRLKMTEQNIIFKNTKTGKVEQISAEDIDLINSQKFVGTWGLRVFTKGGVLHRFTGFRDSEHEKLGKFIKAAYSQEMVEKEMCVKGWNWGTARFMGSVLSFDKESKTIFEVPLSHVSQCVTGKNEVTLEFHQNDDAPVGLLEMRFHIPAVESAEEDPVDKFHQNVMSKASVISASGESIAIFREIQILTPRGRYDIKIFSTFFQLHGKTFDYKIPMDSVLRLFMLPHKDSRQMFFVLSLDPPIKQGQTRYHYLVLLFAPDEETTIELPFSEAELRDKYEGKLEKEISGPVYEVMGKVMKVLIGRKITGPGNFIGHSGTAAVGCSFKAAAGYLYPLERGFIYIHKPPLHIRFEEISSVNFARSGGSTRSFDFEVTLKNGTVHIFSSIEKEEYAKLFDYITQKKLHVSNMGKDKSGYKDVDFGDSDNENEPDAYLARLKAEAREKEEDDDDGDSDEESTDEDFKPNENESDVAEEYDSNVESDSDDDSDASGGGGDSDGAKKKKEKKSEKKEKKEKKHKEKERTKKPSKKKKDSGKPKRATTAFMLWLNDTRESIKRENPGIKVTEIAKKGGEMWKELKDKSKWEDAAAKDKQRYHDEMRNYKPEAGGDSDNEKGGKSSKKRKTEPSPSKKANTSGSGFKSKEYISDDDSTSSDDEKDNEPAKKKSKPPSDGDAKKKKAKSESEPEESEEDSNASDEDEEDEASD
- binding [3]: binds weakly
- binding [2]: no binding

No constants are given. Whether binding was seen depends on the method and setting. Binding can be weak; no strength is given. For some of these results: In cells and extracts the contact can be indirect.
